No constants are given. Whether binding was seen depends on the method and setting. Some binding calls cover weakened binding; strength is not graded here.
Legend:
[1] = biological target: T1, human CD81 on mouse 3T3 cells transfected with human CD81 (human) (UniProt P60033); test: flow cytometry, recombinant E2 on 3T3 cells expressing human CD81, detected with antibody 108
T1 sequence (looked up): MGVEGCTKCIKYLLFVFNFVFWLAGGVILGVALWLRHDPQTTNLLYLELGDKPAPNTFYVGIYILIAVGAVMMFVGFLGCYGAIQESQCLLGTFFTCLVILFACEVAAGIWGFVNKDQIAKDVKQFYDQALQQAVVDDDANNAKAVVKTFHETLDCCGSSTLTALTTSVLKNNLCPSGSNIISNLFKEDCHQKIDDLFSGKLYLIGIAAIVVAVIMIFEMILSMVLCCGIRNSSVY

[2] = biological target: T1, human CD81 on mouse 3T3 cells transfected with human CD81 (human); test: summary of the cell binding studies (flow cytometry)

In the case of “Purified recombinant HCV envelope glycoprotein E2 (Ala 384-Lys 715) (from UniProt P26664 384-715)”, the binding [1] is reported as “binds” and the binding [2] is reported as “binds”.
